Assay results reported in patent US20030060416A1.
No constants are given. Whether binding was seen depends on the method and setting. Binding seen in cells or lysates may run through a third protein. Some entries that bind do so weakly or less than the wild type.

Amino acid sequences for entries named in this document (tags omitted).
UniProt Q07817: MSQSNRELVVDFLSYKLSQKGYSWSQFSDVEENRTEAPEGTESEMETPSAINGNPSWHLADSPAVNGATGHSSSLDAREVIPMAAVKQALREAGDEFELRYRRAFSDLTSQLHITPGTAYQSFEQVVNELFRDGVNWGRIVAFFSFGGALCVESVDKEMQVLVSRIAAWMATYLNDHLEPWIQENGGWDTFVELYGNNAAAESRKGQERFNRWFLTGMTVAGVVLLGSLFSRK
UniProt Q13323: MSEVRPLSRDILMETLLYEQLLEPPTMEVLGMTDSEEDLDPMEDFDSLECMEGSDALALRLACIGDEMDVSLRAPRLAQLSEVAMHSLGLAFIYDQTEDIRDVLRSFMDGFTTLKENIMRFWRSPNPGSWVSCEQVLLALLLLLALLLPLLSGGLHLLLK

How the values were obtained:
[1] = molecular target: GST-Bcl-xL fusion protein (human) [GST: P08515]; assay: GST pull-down of 35S-labeled protein, SDS-PAGE and autoradiography
[2] = molecular target: GST-Bcl-2 fusion protein (human) [GST: P08515]; assay: as above
[3] = molecular target: GST-Bcl-xL fusion protein (human) [GST: P08515]; assay: GST pull-down of 35S-labeled protein (FIG. 5A legend)
[4] = molecular target: GST-Bcl-2 fusion protein (human) [GST: P08515]; assay: as above
[5] = molecular target: T7-epitope tagged Bcl-xL (human) (UniProt Q07817); assay: co-immunoprecipitation from 293 cells (anti-Flag IP, T7-antibody immunoblot)
[6] = molecular target: T7-epitope tagged Bcl-xL (human) (UniProt Q07817); assay: co-immunoprecipitation from 293 cells (FIG. 5B legend)

Measured: binding

Bik (from UniProt Q13323 1-160)
binds: [1] | [2] | [3] | [4]

Flag-epitope tagged Bik (from UniProt Q13323 1-160)
binds: [5] | [6]
